Assay results published in the supplement of paper PMC9254222.
Whole data set: some 1,100 compounds, median “Wnt reporter firefly/Renilla luciferase ratio relative to plate median” near 1.1, cut for the highest 2% near 1.6. Only a part is listed here, and it is no random draw.

Test system: HEK293T (UBE3A T485A transfected, BAR Wnt reporter)
Experiment: Wnt reporter firefly/Renilla luciferase ratio relative to plate median (fold (linear ratio)); higher = more Wnt/beta-catenin reporter activation
Conditions: 24 h
Summary of the method: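 Each value averages four biological replicates in HEK293T cells grown at 4500 cells/well in DMEM with 10% FBS at 37°C and 5% CO2. The cells were transfected with a BAR firefly luciferase Wnt reporter, TK-Renilla and an expression plasmid, then four hours later robotically treated with the chemicals at 0.01–100 uM for 24 h. Dual-Glo luciferase signals were median-centred per plate, with the firefly/Renilla ratio reported as Wnt activity and raw Renilla as cell health.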

Row | Structure (SMILES) | Wnt reporter firefly/Renilla luciferase ratio (concentration: 0.1 uM) | Wnt reporter firefly/Renilla luciferase ratio (concentration: 1 uM) | Wnt reporter firefly/Renilla luciferase ratio (concentration: 10 uM) | Wnt reporter firefly/Renilla luciferase ratio (concentration: 100 uM) | Wnt reporter firefly/Renilla luciferase ratio (concentration: 0.01 uM)
1 | CCCCCCCCCC[N+](C)(C)CCCCCCCCCC.[Cl-] [Didecyldimethylammonium chloride] | 0.908 | 1.09 | 0.905 | 0.0409 | –
2 | COc1ccc(C(c2ccc(OC)cc2)C(Cl)(Cl)Cl)cc1 [Methoxychlor] | 1.13 | 1.12 | 1.25 | 1.04 | 0.858
3 | CCNC(=O)NC(=O)/C(C#N)=N/OC [Cymoxanil] | 1.34 | 1.15 | 1.29 | 1.1 | 1.42
4 | CCCCC(CC)COC(=O)c1ccc(C(=O)OCC(CC)CCCC)c(C(=O)OCC(CC)CCCC)c1 (stereo unspecified) [Tris(2-ethylhexyl) trimellitate] | 1.06 | 1.04 | 1.15 | 1.6 | –
5 | CC1(C)CCC(=Cc2ccc(Cl)cc2)C1(O)Cn1cncn1 (stereo unspecified) [Triticonazole] | 1.06 | 1.11 | 1.01 | 0.311 | 1.43
6 | Nc1nc(N)nc(NC2CC2)n1 [Cyromazine] | 1.18 | 0.955 | 1.02 | 1.22 | 1.01
7 | COP(N)(=O)SC (stereo unspecified) [Methamidophos] | 1.43 | 1.1 | 1.31 | 1.41 | 1.56
8 | CCC(C)c1cc([N+](=O)[O-])cc([N+](=O)[O-])c1O (stereo unspecified) [Dinoseb] | 0.797 | 0.806 | 0.929 | – | –
9 | COCCOCCO [Diethylene glycol monomethyl ether] | 1.19 | 1.21 | 1.31 | 1.43 | –
10 | CN(C)CCO [Dimethylaminoethanol] | 1.18 | 1.02 | 0.827 | 1.21 | –
11 | CSc1nnc(C(C)(C)C)c(=O)n1N [Metribuzin] | 0.957 | 1.06 | 0.988 | 1.17 | 1.04
12 | CC1(C)C(C=C(Cl)Cl)C1C(=O)OCc1cccc(Oc2ccccc2)c1 (stereo unspecified) [Permethrin] | 0.873 | 1.11 | 1.19 | 0.865 | 0.82
13 | C=CC1(C)OC(=O)N(c2cc(Cl)cc(Cl)c2)C1=O (stereo unspecified) [Vinclozolin] | 1.47 | 0.951 | 0.95 | 1.02 | 1.39
14 | O=c1ccc(=O)[nH][nH]1 [Maleic hydrazide] | 0.792 | 0.978 | 0.822 | 1.25 | 0.865
15 | CNC(=O)ON=C(SC)C(=O)N(C)C [Oxamyl] | 1.22 | 1.11 | 1.43 | 0.291 | 1.55
16 | ClC1=C(Cl)C2(Cl)C3C(Cl)C=CC3C1(Cl)C2(Cl)Cl (stereo unspecified) [Heptachlor] | 0.972 | 1.07 | 1.17 | 1.24 | –
17 | Cc1ccc(N)cc1N [2,4-Diaminotoluene] | 1.03 | 1.07 | 0.94 | 0.914 | –
18 | O=C(O)C1(c2ccc3c(c2)OC[C@H](Cc2ccc(-c4ccccc4)cc2)[C@H]3O)CCCC1 | 1.02 | 1.24 | 0.898 | 0.378 | –
19 | N#C/N=C1\SCCN1Cc1ccc(Cl)nc1 [Thiacloprid] | 1.15 | 0.937 | 1.04 | 0.822 | 1.13
20 | CN(C)C(=S)[S-].[Na+] [Sodium dimethyldithiocarbamate] | 1.22 | 0.816 | 0.751 | 0.926 | –
21 | C#CC(C)(C)NC(=O)c1cc(Cl)cc(Cl)c1 [Propyzamide] | 1.05 | 1.09 | 1.16 | 1.19 | 0.933
22 | COP(=S)(OC)Oc1ccc([N+](=O)[O-])c(C)c1 [Fenitrothion] | 2.01 | 1.26 | 1.43 | 0.976 | 1.53

A portion taken from the entries so far:
Row | Structure (SMILES) | Wnt reporter firefly/Renilla luciferase ratio (concentration: 0.1 uM) | Wnt reporter firefly/Renilla luciferase ratio (concentration: 1 uM) | Wnt reporter firefly/Renilla luciferase ratio (concentration: 10 uM) | Wnt reporter firefly/Renilla luciferase ratio (concentration: 100 uM) | Wnt reporter firefly/Renilla luciferase ratio (concentration: 0.01 uM)
11 | CSc1nnc(C(C)(C)C)c(=O)n1N [Metribuzin] | 0.957 | 1.06 | 0.988 | 1.17 | 1.04
12 | CC1(C)C(C=C(Cl)Cl)C1C(=O)OCc1cccc(Oc2ccccc2)c1 (stereo unspecified) [Permethrin] | 0.873 | 1.11 | 1.19 | 0.865 | 0.82
13 | C=CC1(C)OC(=O)N(c2cc(Cl)cc(Cl)c2)C1=O (stereo unspecified) [Vinclozolin] | 1.47 | 0.951 | 0.95 | 1.02 | 1.39
14 | O=c1ccc(=O)[nH][nH]1 [Maleic hydrazide] | 0.792 | 0.978 | 0.822 | 1.25 | 0.865

Following part:

Row | Structure (SMILES) | Wnt reporter firefly/Renilla luciferase ratio (concentration: 0.1 uM) | Wnt reporter firefly/Renilla luciferase ratio (concentration: 1 uM) | Wnt reporter firefly/Renilla luciferase ratio (concentration: 10 uM) | Wnt reporter firefly/Renilla luciferase ratio (concentration: 100 uM) | Wnt reporter firefly/Renilla luciferase ratio (concentration: 0.01 uM)
23 | CN(C)NC(=O)CCC(=O)O [Daminozide] | 1.06 | 0.936 | 1.11 | 1.1 | 0.982
24 | O=P(OCCCl)(OCCCl)OCCCl [Tris(2-chloroethyl) phosphate] | 1.03 | 0.971 | 1.12 | 1.19 | –
25 | NS(=O)(=O)C(F)(F)C(F)(F)C(F)(F)C(F)(F)C(F)(F)C(F)(F)C(F)(F)C(F)(F)F | 0.978 | 1.01 | 1.33 | 0.586 | –
26 | CCSC(=O)N(CC)C1CCCCC1 [Cycloate] | 0.947 | 1.06 | 1.04 | 1.25 | 1.03
27 | CSc1nc(NC(C)C)nc(NC(C)C)n1 [Prometryn] | 0.888 | 1.06 | 1 | 0.599 | 0.803
28 | O.[Br-].[Br-].c1cc[n+]2c(c1)-c1cccc[n+]1CC2 [Diquat dibromide monohydrate] | 0.909 | 0.983 | 1.18 | 1.14 | 1.03
29 | CC(C)=CC1C(C(=O)OCN2C(=O)C3=C(CCCC3)C2=O)C1(C)C (stereo unspecified) [Tetramethrin] | 0.76 | 0.941 | 0.819 | 0.824 | 0.717
30 | CC(=O)N=C1C=CC(=O)C=C1 | 1.17 | 1 | 0.923 | 1.08 | 0.925
31 | Cc1cc(Cl)ccc1OCC(=O)O | 0.754 | 0.938 | 0.821 | 1.07 | 0.747
32 | C=CCOC(=O)C(C)(C)OC(=O)c1cc(-n2c(=O)cc(C(F)(F)F)n(C)c2=O)ccc1Cl [Butafenacil] | 1.03 | 1.12 | 1.14 | 1.46 | 1.33
33 | CS(=O)(=O)c1ccc(C(=O)C2C(=O)CCCC2=O)c([N+](=O)[O-])c1 [Mesotrione] | 1.82 | 0.968 | 1.14 | 1.16 | 1.7
34 | O=C1CCCO1 [4-Butyrolactone] | 1.08 | 0.968 | 1.25 | 1.35 | –
35 | Clc1cc(Cl)c(Cl)cc1Cl [1,2,4,5-Tetrachlorobenzene] | 1.45 | 1.14 | 1.3 | 1.32 | –
36 | c1ccc(-c2ccccc2)cc1 [Biphenyl] | 1.39 | 1.01 | 1.25 | 1.46 | –
37 | Oc1nc(O)nc(O)n1 [Cyanuric acid] | 1.32 | 1.15 | 1.08 | 1.55 | –
38 | OCC1CO1 (stereo unspecified) [Glycidol] | 1.01 | 1.08 | 1.02 | 1.34 | –
39 | O=c1n(Cl)c(=O)n(Cl)c(=O)n1Cl [Symclosene] | 1.2 | 1.18 | 1.36 | 1.04 | 1.17
40 | CO/C=C(/C(=O)OC)c1ccccc1COc1cccc(C(F)(F)F)n1 [Picoxystrobin] | 1.07 | 0.811 | 0.949 | 0.242 | –
41 | CS(=O)CCCCN=C=S (stereo unspecified) [Sulforaphane] | 0.909 | 0.819 | 0.982 | – | 1.15
42 | OCCCBr [3-Bromo-1-propanol] | 1.09 | 1.19 | 1.06 | 1.45 | –
43 | C[C@]12C=CC3=C4CCC(=O)C=C4CC[C@H]3[C@@H]1CC[C@@H]2O [17beta-Trenbolone] | 1.08 | 1.18 | 0.938 | 0.146 | –
44 | CCC[CH2][Sn]([Cl])([CH2]CCC)[CH2]CCC [Tributyltin chloride] | 0.894 | 0.822 | 0.539 | – | –

Row | Structure (SMILES) | Wnt reporter firefly/Renilla luciferase ratio (concentration: 0.1 uM) | Wnt reporter firefly/Renilla luciferase ratio (concentration: 1 uM) | Wnt reporter firefly/Renilla luciferase ratio (concentration: 10 uM) | Wnt reporter firefly/Renilla luciferase ratio (concentration: 100 uM) | Wnt reporter firefly/Renilla luciferase ratio (concentration: 0.01 uM)
45 | CCOc1ccc(C(C)(C)COCc2cccc(Oc3ccccc3)c2)cc1 [Etofenprox] | 0.976 | 1.03 | 1.19 | 1.44 | –
46 | CCOC(=O)COc1cc(-c2nn(C)c(OC(F)F)c2Cl)c(F)cc1Cl [Pyraflufen-ethyl] | 1.63 | 1.05 | 1.09 | 1.13 | 1.13
47 | CCOP(=S)(OCC)Oc1nc(Cl)n(C(C)C)n1 [Isazofos] | 0.998 | 0.947 | 1.22 | 0.937 | 1.07
48 | CN(C)C(=O)Nc1cccc(C(F)(F)F)c1 [Fluometuron] | 1.43 | 1.1 | 0.996 | 1.04 | 1.3
49 | N#Cc1ccc(N(CC(N)=O)CC(F)(F)F)cc1C(F)(F)F | 0.925 | 0.896 | 0.684 | 0.562 | –
50 | CC(C)(C)C(O)/C(=C\c1ccc(Cl)cc1Cl)n1cncn1 (stereo unspecified) [Diniconazole] | 1.05 | 0.977 | 0.744 | – | 1.09
51 | CCN(CC)CCO [N,N-Diethylethanolamine] | 1.01 | 1.07 | 0.956 | 1.44 | –
52 | COc1cc2c(c(OC)c1OC)-c1ccc(OC)c(=O)cc1[C@@H](NC(C)=O)CC2 [Colchicine] | 0.867 | – | – | – | –
53 | FC(F)C(F)(F)OCC(Cn1cncn1)c1ccc(Cl)cc1Cl (stereo unspecified) [Tetraconazole] | 0.814 | 1.03 | 0.808 | – | 0.973
54 | CCC(C)c1ccc(O)cc1 (stereo unspecified) [4-(Butan-2-yl)phenol] | 0.977 | 0.934 | 1.18 | 1.1 | –
55 | CCOP(=O)(OCC)Oc1nc(Cl)c(Cl)cc1Cl [Chlorpyrifos oxon] | 0.876 | 1.02 | 0.861 | 0.591 | 0.967
56 | CCNc1nc(Cl)nc(NC(C)C)n1 [Atrazine] | 1.38 | 1.15 | 1.29 | 1.18 | 1.45
57 | Oc1cc(Cl)ccc1Oc1ccc(Cl)cc1Cl [Triclosan] | 1.13 | 1.02 | 1.06 | 0.692 | 1.17
58 | CS/C(C)=N/OC(=O)N(C)SN(C)C(=O)O/N=C(\C)SC [Thiodicarb] | 1.86 | – | – | – | –
59 | CCCCCCCCCc1ccc(O)cc1 [4-Nonylphenol, branched] | 1.17 | 1.09 | 0.969 | 1.71 | –
60 | Cc1ccc([N+](=O)[O-])cc1N [2-Methyl-5-nitroaniline] | 0.875 | 0.846 | 0.995 | 0.931 | –
61 | CCC(C)(CC)c1cc(NC(=O)c2c(OC)cccc2OC)on1 [Isoxaben] | 1.06 | 1.09 | 0.952 | 0.423 | 1.21
62 | CC(C)(C)c1ccccc1O [2-tert-Butylphenol] | 1.53 | 1.54 | 1.25 | 0.813 | –
63 | Nc1c(Cl)cc([N+](=O)[O-])cc1Cl [Dicloran] | 1.64 | – | – | – | 1.85
64 | Cc1ccc(O)cc1C [3,4-Dimethylphenol] | 0.817 | 0.98 | 1.07 | 1.4 | –
65 | C[N+]1(C)CCCCC1.[Cl-] [Mepiquat chloride] | 0.838 | 0.918 | 1.18 | 1.04 | 0.721
66 | CNc1cnn(-c2cccc(C(F)(F)F)c2)c(=O)c1Cl [Norflurazon] | 1.47 | 1.14 | 1.02 | 0.762 | 1.24
